Measurements as given in patent publication US20210363232A1.

Target: IL-34 (species not stated)
Test: summary of the binding results of Tables 2, 3 and 4

B1: Antibody 3 (antibody, mouse IgG1, kappa, V domains shown)
VH: EVQLLESGGGLVQPGGSLRLSCAASGFTFSYYAMSWVRQAPGKGLEWVSAISHRGGSTLYADSVKGRFTISRDNSKNTLYLQMNSLRAEDTAVYYCARGRSSLDGWGQGTMVTVSS
VL: EIVLTQSPGILSLSPGERASLSCRASTSVSSAYLAWYQQKPGQAPRLLIYASSHRPLGIPDRFSGSGSGTDFTLTISRLEPEDFAVYYCQQYGDSLSFGGGTKVEIKR
- binding: binds

Results are given in words; binding and its absence hold for the method and conditions named. A result given as binding can be weak or reduced; the word gives no strength.
